Experimental data: paper PMC8018994
Results are given in words; binding and its absence hold for the method and conditions named. In cells and extracts the contact can be indirect. Some results given as binding are weak or reduced against the parent protein; the word gives no strength.

Sequences of proteins named here, by UniProt entry; tags and fusion partners are left off. Residues count along the entry.
UniProt P22646, residues 22-189: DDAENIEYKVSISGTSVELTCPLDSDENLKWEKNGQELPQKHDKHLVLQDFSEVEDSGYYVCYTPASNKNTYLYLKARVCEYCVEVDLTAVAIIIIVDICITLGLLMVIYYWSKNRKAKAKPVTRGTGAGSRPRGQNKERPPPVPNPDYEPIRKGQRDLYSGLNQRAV
UniProt P35951, residues 22-862: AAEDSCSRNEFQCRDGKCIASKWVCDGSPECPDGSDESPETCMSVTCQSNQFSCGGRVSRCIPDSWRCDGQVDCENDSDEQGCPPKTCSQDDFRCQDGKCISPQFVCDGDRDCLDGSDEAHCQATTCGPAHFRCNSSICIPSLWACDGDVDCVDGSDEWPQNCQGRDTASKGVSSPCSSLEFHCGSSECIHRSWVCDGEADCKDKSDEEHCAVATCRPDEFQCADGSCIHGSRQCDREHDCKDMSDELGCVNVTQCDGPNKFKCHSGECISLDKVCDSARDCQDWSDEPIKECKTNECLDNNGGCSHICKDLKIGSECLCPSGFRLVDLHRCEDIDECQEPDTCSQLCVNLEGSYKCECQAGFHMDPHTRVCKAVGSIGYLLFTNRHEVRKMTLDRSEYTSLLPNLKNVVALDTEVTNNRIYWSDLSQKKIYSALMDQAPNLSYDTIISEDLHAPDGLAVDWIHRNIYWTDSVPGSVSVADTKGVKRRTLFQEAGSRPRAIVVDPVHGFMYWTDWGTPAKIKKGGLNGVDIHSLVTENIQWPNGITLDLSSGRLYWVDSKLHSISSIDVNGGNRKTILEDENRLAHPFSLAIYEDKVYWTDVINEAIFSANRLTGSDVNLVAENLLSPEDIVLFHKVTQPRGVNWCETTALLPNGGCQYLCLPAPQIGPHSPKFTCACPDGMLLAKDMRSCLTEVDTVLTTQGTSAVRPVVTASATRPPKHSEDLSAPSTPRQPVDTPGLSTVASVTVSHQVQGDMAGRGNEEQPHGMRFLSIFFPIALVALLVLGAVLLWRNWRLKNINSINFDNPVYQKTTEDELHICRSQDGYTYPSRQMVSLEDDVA

Biological target: CD3ε (mouse (endogenous in CTLs)) (UniProt P22646)
Test: co-IP; CTLs lysed in 0.25% digitonin lysis buffer (50 mmol/L Tris-HCl pH 7.4, 155 mmol/L NaCl, 5 mmol/L EDTA); CD3ε immunoprecipitated, LDLR detected by immunoblotting

- binding: binds
Substance: low-density lipoprotein receptor (LDLR) (from UniProt P35951 22-862)
